Results on one molecule are retold here after patent US20100204295A1, “TREATMENT OF ALLERGIC DISEASE WITH IMMUNOMODULATOR COMPOUNDS” (SCICLONE PHARMACEUTICALS, INC., priority 2007, published 2010).

A short description of the series: Interference of SCV-07 with EPO, MPO and OD412 measurements in vitro. As to conditions: SCV-07 at 0.3 ug/ml.

Take `N[C@H](CCC(=O)N[C@@H](Cc1c[nH]c2ccccc12)C(=O)O)C(=O)O` [SCV-07, γ-D-glutamyl-L-tryptophan]: the “Interference with OD 412 measurements in vitro” value is “did not interfere”.
